Numbering of substitutions follows the chain as printed. Names may count otherwise. These are yes or no findings as the source states them, for the method shown. Some entries that bind do so weakly or less than the wild type.
B1: recombinant myristoylated recoverin, reduced monomer (Rec) (protein, UniProt P21457 1-202)
chain: MGNSKSGALSKEILEELQLNTKFTEEELSSWYQSFLKECPSGRITRQEFQTIYSKFFPEADPKAYAQHVFRSFDANSDGTLDFKEYVIALHMTSAGKTNQKLEWAFSLYDVDGNGTISKNEVLEIVTAIFKMISPEDTKHLPEDENTPEKRAEKIWGFFGKKDDDKLTEKEFIEGTLANKEILRLIQFEPQKVKEKLKEKKL
modifications: N-terminal myristoyl group (myristoylation rate more than 95%)
B2: recoverin C39D mutant (Rec-C39D) (natural protein, UniProt P21457 1-202, looked up)
chain: B1 chain with C39D
modifications: N-terminal myristoyl group (myristoylation rate more than 95%)
notes: recoverin with C39D, which mimics oxidation of cysteine-39 to a sulfenic/sulfinic/sulfonic group; also called thiol oxidation mimicking mutant; oxidized monomer mimic

By UniProt entry, the sequences of proteins in these tests, tags left out. Where a name states a change or a piece, a line headed by the entry shows the natural chain unless it says otherwise. Chains listed by the source or under a name are the forms on record and can include a tag or linker. Residues count along the entry.
N-terminal fragment of caveolin-1 M1-R101 with N-terminal His6-tag (Cav) (Q03135, residues 1-101): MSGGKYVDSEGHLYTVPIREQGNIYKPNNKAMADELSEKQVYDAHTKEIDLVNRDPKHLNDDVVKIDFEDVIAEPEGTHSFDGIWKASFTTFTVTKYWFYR
N-terminally tagged caveolin-1 fragment M1-R101 with Y14E substitution (CavE) (Q03135, form named): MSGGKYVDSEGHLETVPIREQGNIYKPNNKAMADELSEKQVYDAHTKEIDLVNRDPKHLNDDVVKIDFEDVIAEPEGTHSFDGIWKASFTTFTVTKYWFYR

Experiments:
[1] = target: N-terminal fragment of caveolin-1 M1-R101 with N-terminal His6-tag (Cav) (UniProt Q03135); assay: pull-down; Cav or CavE covalently attached to BrCN-activated Sepharose CL-4B; 50 ug recoverin form; 20 mM Tris-HCl pH 7.5, 100 mM NaCl, 2 mM MgCl2, 2 mM EGTA (calcium-free); 30 min at room temperature; bound protein analysed by SDS-PAGE; both purified
[2] = target: N-terminally tagged caveolin-1 fragment M1-R101 with Y14E substitution (CavE) (UniProt Q03135); assay: condition: only with 2 mM Ca2+ (1 mM CaCl2 in the methods); analyte 2.5 to 30 uM; SPR; Cav or CavE immobilised by amine coupling (ProteOn GLH chip); analyte 2.5-30 uM recoverin form; 10 mM HEPES pH 7.4, 150 mM NaCl, 2 mM DTT (none for dRec), 0.05% TWEEN 20, with calcium (1 mM CaCl2 in the methods, 2 mM Ca2+ in Table 2); 25 C; heterogeneous ligand model; both purified
[3] = target: N-terminally tagged caveolin-1 fragment M1-R101 with Y14E substitution (CavE) (UniProt Q03135); assay: pull-down; Cav or CavE covalently attached to BrCN-activated Sepharose CL-4B; 50 ug recoverin form; 20 mM Tris-HCl pH 7.5, 100 mM NaCl, 2 mM MgCl2, 2 mM EGTA (calcium-free); 30 min at room temperature; bound protein analysed by SDS-PAGE; both purified

Binder	binding [1]	binding [2]	binding [3]
B1	binds	no binding	
B2			binds
